Results reported in publication PMC12853880.
No constants are given. Whether binding was seen depends on the method and setting. In cells and extracts the contact can be indirect. These calls come from enrichment with a bait or labelling near it, and not all partners need be listed.

B1: FSD2, endogenous (enzyme, UniProt Q9LU64 47-305)
chain: GVITAGFELKPPPYPLDALEPHMSRETLDYHWGKHHKTYVENLNKQILGTDLDALSLEEVVLLSYNKGNMLPAFNNAAQAWNHEFFWESIQPGGGGKPTGELLRLIERDFGSFEEFLERFKSAAASNFGSGWTWLAYKANRLDVANAVNPLPKEEDKKLVIVKTPNAVNPLVWDYSPLLTIDTWEHAYYLDFENRRAEYINTFMEKLVSWETVSTRLESAIARAVQREQEGTETEDEENPDDEVPEVYLDSDIDVSEVD
B2: FSD3, endogenous (enzyme, UniProt Q9FMX0 42-263)
chain: GGLKVEAYYGLKTPPYPLDALEPYMSRRTLEVHWGKHHRGYVDNLNKQLGKDDRLYGYTMEELIKATYNNGNPLPEFNNAAQVYNHDFFWESMQPGGGDTPQKGVLEQIDKDFGSFTNFREKFTNAALTQFGSGWVWLVLKREERRLEVVKTSNAINPLVWDDIPIICVDVWEHSYYLDYKNDRAKYINTFLNHLVSWNAAMSRMARAEAFVNLGEPNIPIA
B3: … SUPEROXIDE DISMUTASE 1 (MSD1), endogenous (enzyme, UniProt O81235 30-231)
chain: TFTLPDLPYDYGALEPAISGEIMQIHHQKHHQAYVTNYNNALEQLDQAVNKGDASTVVKLQSAIKFNGGGHVNHSIFWKNLAPSSEGGGEPPKGSLGSAIDAHFGSLEGLVKKMSAEGAAVQGSGWVWLGLDKELKKLVVDTTANQDPLVTKGGSLVPLVGIDVWEHAYYLQYKNVRPEYLKNVWKVINWKYASEVYEKENN
B4: ASCORBATE PEROXIDASE 3, endogenous (enzyme, UniProt Q42564 1-287)
chain: MAAPIVDAEYLKEITKARRELRSLIANKNCAPIMLRLAWHDAGTYDAQSKTGGPNGSIRNEEEHTHGANSGLKIALDLCEGVKAKHPKITYADLYQLAGVVAVEVTGGPDIVFVPGRKDSNVCPKEGRLPDAKQGFQHLRDVFYRMGLSDKDIVALSGGHTLGRAHPERSGFDGPWTQEPLKFDNSYFVELLKGESEGLLKLPTDKTLLEDPEFRRLVELYAKDEDAFFRDYAESHKKLSELGFNPNSSAGKAVADSTILAQSAFGVAVAAAVVAFGYFYEIRKRMK
B5: TUDOR STAPHYLOCOCCAL NUCLEASE 1 (TSN1), endogenous (protein, UniProt Q8VZG7 1-991)
chain: MATGAENQWLKGRVKAVTSGDCLVITALSHNRAGPPPEKTITFSSLMAPKMARRGGIDEPFAWESKEFLRKLCIGKEVAFKVDYKVEAIAGREFGSVFLGNENLAKLVVKTGWAKVREPGQQNQDKVSPYIKELLQLEELAKQEGYGRWSKVPGAAEASIRNLPPSAIGDSAGFDAMGLLAANKGKPMEGIVEQVRDGSTIRVYLLPEFQFVQVFVAGVQAPSMGRRTTNGSVVETVPDEPNGDVSAESRGPLTTAQRLAASAASSVEVSSDPFATEAKYFTEHRVLSRDVRIVLEGVDKFNNLIGSVHYSDGETVKDLGLELVENGLAKFVEWSANMMEEEAKKKLKAAELQCKKDKVKMWANYVPPATNSKAIHDQNFTGKVVEVVSGDCLIVADDAVPFGSPAAERRVCLSSIRSPKMGNPRREEKPAPYAREAREFLRQRLIGKQVIVQMEYSRKVTQGDGPTTSGAADRFMDFGSVFLPSAAKADSDEVTAPPAAAIAGSQPVGVNIAELVLVRGFGNVVRHRDFEERSNHYDALLAAEARALAGKKGIHSAKESPAMHITDLTVSAAKKAKDFLPSLQRIRRIPAVVEYVLSGHRFKLYIPKITCSIAFSFSGVRCPGRGEPYSEEAISVMRRRIMQRDVEIEVETVDRTGTFLGSMWESRTNVATVLLEAGLAKMQTSFGADRIAEAHLLEQAERSAKNQKLKIWENYVEGEEVSNGNTNTVETRQKETLKVVVTEVLGGGRFYVQSAGDQKIASIQNQLASLSIKDAPIIGSFNPKRGDIVLAQFSLDNSWNRAMIVTAPRAAVQSPDEKFEVFYIDYGNQETVPYSAIRPIDPSVSAAPGLAQLCRLAYIKVPSLEDDFGPEAGEYLHTVTLGSGKEFKAVIEERDTSGGKVKGQGTGTEFVVTLIAVDDEISVNAAMLQEGIARMEKRQKWGHKGKQAALDALEKFQEEARKSRIGIWQYGDIESDDEDTGPARKPAGGRR
B6: TUDOR STAPHYLOCOCCAL NUCLEASE 2 (TSN2), endogenous (protein, UniProt Q9FLT0 1-985)
chain: MATGAATENQWLKGRVKAVTSGDCLVITALTHNRAGPPPEKTITLSSLMAPKMARRGGIDEPFAWESREFLRKLCIGKEVAFKVDYKVEAIAGREFGSVYLGNENLAKLVVQNGWAKVRRPGQQNQDKVSPYIAELEQLEEQAQQEGFGRWSKVPGAAEASIRNLPPSAVGDSGNFDAMGLLAASKGKPMEGIVEQVRDGSTIRVYLLPEFQFVQVFVAGLQAPSMGRRQSTQEAVVDPDVTATSNGDASAETRGPLTTAQRLAASAASSVEVSSDPFAMEAKYFTELRVLNRDVRIVLEGVDKFNNLIGSVYYSDGDTVKDLGLELVENGLAKYVEWSANMLDEEAKKKLKATELQCKKNRVKMWANYVPPASNSKAIHDQNFTGKVVEVVSGDCLVVADDSIPFGSPMAERRVCLSSIRSPKMGNPRREEKPAPYAREAKEFLRQKLIGMEVIVQMEYSRKISPGDGVTTSGAGDRVMDFGSVFLPSPTKGDTAVAAAATPGANIAELIISRGLGTVVRHRDFEERSNHYDALLAAEARAIAGKKNIHSAKDSPALHIADLTVASAKKAKDFLPSLQRINQISAVVEYVLSGHRFKLYIPKESCSIAFAFSGVRCPGRGEPYSEEAIALMRRKIMQRDVEIVVENVDRTGTFLGSMWEKNSKTNAGTYLLEAGLAKMQTGFGADRIPEAHILEMAERSAKNQKLKIWENYVEGEEVVNGSSKVETRQKETLKVVVTEVLGGGRFYVQTVGDQKVASIQNQLAALSLKDAPIIGSFNPKKGDIVLAQFSLDNSWNRAMIVNGPRGAVQSPEEEFEVFYIDYGNQEIVPYSAIRPVDPSVSSAPGLAQLCRLAYIKVPGKEEDFGRDAGEYLHTVTLESGKEFRAVVEERDTSGGKVKGQGTGTELVVTLIAVDDEISVNAAMLQEGIARMEKRRRWEPKDKQAALDALEKFQDEARKSRTGIWEYGDIQSDDEDNVPVRKPGRG

Biological target: RACK1A-GFP (RECEPTOR FOR … C KINASE 1A fused to GFP, 5'UTR-pRACK1A::gRACK1A:GFP:3'UTR) (Arabidopsis thaliana) (UniProt O24456)
Test: affinity purification with mass spectrometry; GFP trap of RACK1A-GFP from extracts of 14-d-old seedlings of the RACK1A-GFP line treated with liquid 1/2 MS with or without 150 mM NaCl for 1 h; on-beads trypsin digestion, LC-ESI-MS/MS; 4 biological replicates; proteins interacting with YFP removed as unspecific

Binder | binding
B1 | binds
B2 | binds
B3 | binds
B4 | binds
B5 | binds
B6 | binds
